# From PubChem BioAssay AID1487 (National Center for Advancing Translational Sciences (NCATS), 2009)
# This is one part of the list. Further columns of the screen follow, without active or inactive calls. Most of these compounds were active or inconclusive in the main read-out, so they are no random draw. Words in brackets tell the shape of the fitted curve; partial curves, single points and poor fits give uncertain potencies.
# Experiment: qHTS Assay for Modulators of Lamin A Splicing
# Conditions: HeLa LMNA splicing GFP/RFP minigene ratio, 48 h
# Outline: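 S3 HeLa cells stably expressing lamin A-EGFP splicing minigene plus DsRed2, 600 cells/well, 48 h compound exposure at 37C. Laser-scanning cytometry; analysed as GFP (500-530 nm)/RFP (575-640 nm) total intensity ratio; 0.5% DMSO vehicle.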
# [1] = measured here: RFP viability control channel
# [2] = measured here: GFP splicing reporter channel
smiles,measurement,setting,value
CCCCn1c(=O)c(C(=O)NCc2ccncc2)c(O)c2ccccc21,AC50,[1],"31.6 µM [rising, single point]"
Cc1nc2c(=O)n(C)c(=O)nc-2n(C)n1,AC50,[2],"4.47 µM [falling, full curve]"
same,AC50,[1],"2 µM [falling, full curve]"
CC1CCc2c(sc3nc(CSc4n[nH]c(N)n4)[nH]c(=O)c23)C1 (configuration not stated),AC50,[2],"0.0891 µM [rising, full curve, poor fit]"
same,AC50,[1],"0.178 µM [rising, full curve, poor fit]"
Cc1ccccc1-c1nn2c(=O)cc(CN3CCN(C(=O)COc4ccccc4Cl)CC3)nc2s1,AC50,[2],"35.5 µM [falling, single point]"
COc1ccc(CN2CCCC(C(=O)c3sccc3C)C2)cc1O (configuration not stated),AC50,[2],"2 µM [falling, single point]"
same,AC50,[1],"1.78 µM [falling, partial curve]"
O=C(Nc1ccc2nc(-c3cccs3)c(-c3cccs3)nc2c1)NC1CC1,AC50,[1],"15.8 µM [rising, single point]"
COc1cc(CCN)ccc1O,AC50,[1],"0.00501 µM [falling, full curve, poor fit]"
NC(N)=N/N=C/c1c(Cl)cccc1Cl,AC50,[1],"0.00282 µM [falling, full curve, poor fit]"
CCCN(CCC)[C@@H]1CCc2cccc(O)c2C1,AC50,[2],"6.31 µM [falling, partial curve, poor fit]"
same,AC50,[1],"0.00562 µM [falling, full curve, poor fit]"
CC(=O)N(C1=NCCCS1)c1ccccc1Cl,AC50,[2],"0.708 µM [falling, full curve]"
C=CCn1c(O)c(C(CC)=NCc2cccnc2)c(=O)[nH]c1=O,AC50,[1],"1.12 µM [rising, single point]"
O=C(Cc1ccccc1)NC(Oc1ccccc1Cl)C(Cl)(Cl)Cl (configuration not stated),AC50,[1],"0.1 µM [rising, full curve, poor fit]"
Cc1c2cnn(CC(=O)N3CCC4(CC3)OCCO4)c(=O)c2c(C)n1Cc1ccc(F)cc1,AC50,[2],"15.8 µM [rising, partial curve]"
same,AC50,[1],"15.8 µM [rising, partial curve]"
N#Cc1ccccc1Cn1cc(C(=O)C2CC2)c2ccccc21,AC50,[2],"3.16 µM [falling, partial curve]"
same,AC50,[1],"5.62 µM [falling, partial curve]"
CCCC(C)C1(CC)C(=O)NC(=Nc2ccc(F)cc2)NC1=O (configuration not stated),AC50,[1],"22.4 µM [rising, single point]"
Cc1ccc(N2C(=O)NC(=O)/C(=C/C=C/c3ccco3)C2=O)cc1,AC50,[2],"22.4 µM [falling, partial curve, poor fit]"
same,AC50,[1],"4.47 µM [falling, partial curve, poor fit]"
CC1CCC/C=C/C2CC(O)CC2C(O)/C=C/C(=O)O1 (configuration not stated),AC50,[1],"12.6 µM [rising, single point]"
CCC(=NCc1ccc2c(c1)OCO2)c1c(O)n(C)c(=O)n(C)c1=O,AC50,[1],"7.94 µM [rising, partial curve]"
N#CC(C#N)=Cc1ccc(C=C(C#N)C#N)cc1,AC50,[1],"7.94 µM [falling, partial curve, poor fit]"
O=C(N/N=C/c1cccnc1)c1ccc(NC(=O)C(c2ccccc2)c2ccccc2)cc1,AC50,[1],"5.62 µM [rising, full curve]"
Cc1cccc(NP(C)(=O)c2nc3c(s2)CCCC3)c1 (configuration not stated),AC50,[1],"0.0224 µM [falling, full curve, poor fit]"
CCC(=Nc1ccc(OC)cc1OC)c1c(O)n(C)c(=O)n(C)c1=O,AC50,[1],"10 µM [rising, partial curve]"
COc1cc(OC)c(/C=C2/C(=O)Nc3ccccc32)c(OC)c1,AC50,[2],"3.16 µM [falling, full curve]"
same,AC50,[1],"3.98 µM [falling, full curve]"
C=Cc1ccc(Cn2c(C(=O)O)c(C=O)c3ccccc32)cc1,AC50,[1],"0.282 µM [rising, full curve, poor fit]"
Cc1cc(C=C2C(=O)NC(=S)NC2=O)c(C)n1-c1ccc2c(c1)OCO2,AC50,[2],"15.8 µM [falling, single point]"
same,AC50,[1],"14.1 µM [falling, single point]"
O=C1C=CC(=O)c2c1ccc1c2ccc2ccccc21,AC50,[2],"11.2 µM [falling, partial curve]"
same,AC50,[1],"5.01 µM [falling, partial curve]"
CN(C)C(=S)SSC(=S)N(C)C,AC50,[2],"1.58 µM [falling, full curve]"
same,AC50,[1],"1 µM [falling, full curve]"
COc1cccc(NP(=O)(Oc2ccccc2)Oc2ccccc2)c1,AC50,[1],"5.62 µM [rising, single point]"
CCC1C(=O)OCC1Cc1cncn1C (configuration not stated),AC50,[2],"5.62 µM [rising, single point]"
same,AC50,[1],"0.282 µM [rising, full curve, poor fit]"
C[C@@]1(CO)[C@H](O)CC[C@@]2(C)[C@H]1CC[C@H]1C[C@@H]3C[C@@]12CC[C@]3(O)CO,AC50,[2],"0.316 µM [falling, full curve]"
same,AC50,[1],"0.794 µM [rising, full curve]"
Cn1nc(-c2ccc(OCC(=O)N3CCN(Cc4ccccc4)CC3)cc2)c2ccccc2c1=O,AC50,[2],"2 µM [rising, full curve]"
same,AC50,[1],"7.08 µM [rising, partial curve]"
CC1(C(=O)O)C2CCC(O2)C1(C)C(=O)O (configuration not stated),AC50,[2],"2.51 µM [falling, full curve]"
same,AC50,[1],"2.24 µM [falling, full curve]"
O=c1[nH]c(=O)n(CCC2=CCCCC2)c(O)c1/C=N/Nc1ccccc1,AC50,[2],"12.6 µM [rising, single point]"
same,AC50,[1],"31.6 µM [rising, single point]"
C=CCN1C(=O)NC(=O)/C(=C\c2ccc(-c3ccccc3[N+](=O)[O-])o2)C1=O,AC50,[2],"0.562 µM [falling, full curve, poor fit]"
same,AC50,[1],"0.316 µM [falling, full curve, poor fit]"
CC(=O)NC1[C@H]([C@H](O)[C@H](O)CO)OC(C(=O)O)=C[C@H]1N=C(N)N (some centres not stated),AC50,[1],"0.631 µM [rising, full curve, poor fit]"

# Reformatted bar-delimited: part of the list above
smiles | measurement | setting | value
Cc1ccccc1-c1nn2c(=O)cc(CN3CCN(C(=O)COc4ccccc4Cl)CC3)nc2s1 | AC50 | [2] | 35.5 µM [falling, single point]
COc1ccc(CN2CCCC(C(=O)c3sccc3C)C2)cc1O (configuration not stated) | AC50 | [2] | 2 µM [falling, single point]
